In doi:10.1101/2020.11.17.386672:
No constants are given. Whether binding was seen depends on the method and setting. In cells and extracts the contact can be indirect. These calls come from enrichment with a bait or labelling near it, and not all partners need be listed.

Chains of the proteins cited; added tags and fusions are not shown.
UniProt O22467: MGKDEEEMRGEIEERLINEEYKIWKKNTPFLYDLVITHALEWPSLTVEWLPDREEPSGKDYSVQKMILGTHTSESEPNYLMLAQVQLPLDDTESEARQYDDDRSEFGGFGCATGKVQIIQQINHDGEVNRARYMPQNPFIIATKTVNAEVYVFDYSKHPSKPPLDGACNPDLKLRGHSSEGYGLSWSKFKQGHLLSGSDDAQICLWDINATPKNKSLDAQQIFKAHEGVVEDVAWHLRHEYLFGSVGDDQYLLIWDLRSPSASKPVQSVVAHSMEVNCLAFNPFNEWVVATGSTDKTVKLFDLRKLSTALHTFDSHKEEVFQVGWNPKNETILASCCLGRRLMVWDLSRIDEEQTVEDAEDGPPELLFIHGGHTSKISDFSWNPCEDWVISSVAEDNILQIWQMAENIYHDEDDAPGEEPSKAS

Target: T1, HDA15 (endogenous) (Arabidopsis thaliana (endogenous in Col-0)) (UniProt Q8GXJ1)
T1 sequence: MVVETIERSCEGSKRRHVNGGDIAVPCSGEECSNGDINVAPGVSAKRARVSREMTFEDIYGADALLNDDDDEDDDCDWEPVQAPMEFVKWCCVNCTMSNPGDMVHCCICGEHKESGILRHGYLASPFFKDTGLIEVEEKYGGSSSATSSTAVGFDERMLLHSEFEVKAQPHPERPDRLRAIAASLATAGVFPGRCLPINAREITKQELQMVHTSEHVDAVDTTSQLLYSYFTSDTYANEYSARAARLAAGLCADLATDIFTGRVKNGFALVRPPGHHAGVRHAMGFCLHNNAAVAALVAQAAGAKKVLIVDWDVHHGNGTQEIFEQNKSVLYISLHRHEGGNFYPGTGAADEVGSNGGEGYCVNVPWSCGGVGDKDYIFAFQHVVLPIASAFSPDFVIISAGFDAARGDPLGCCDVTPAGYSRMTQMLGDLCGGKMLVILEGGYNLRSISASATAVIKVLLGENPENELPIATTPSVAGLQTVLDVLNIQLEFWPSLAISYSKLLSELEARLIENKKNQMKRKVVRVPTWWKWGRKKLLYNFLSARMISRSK
Test: affinity purification with mass spectrometry

| binding | Substance |
| --- | --- |
| binds | MULTICOPY SUPRESSOR OF IRA1 (MSI1) (from UniProt O22467 1-424) |
| binds | MAC5A |
